Measurements published in US7033832.
No constants are given. Whether binding was seen depends on the method and setting. Binding seen in cells or lysates may run through a third protein. Some results given as binding are weak or reduced against the parent protein; the word gives no strength.

Amino acid sequences for entries named in this document (tags omitted). Residues count along the entry.
UniProt P35222, residues 2-781: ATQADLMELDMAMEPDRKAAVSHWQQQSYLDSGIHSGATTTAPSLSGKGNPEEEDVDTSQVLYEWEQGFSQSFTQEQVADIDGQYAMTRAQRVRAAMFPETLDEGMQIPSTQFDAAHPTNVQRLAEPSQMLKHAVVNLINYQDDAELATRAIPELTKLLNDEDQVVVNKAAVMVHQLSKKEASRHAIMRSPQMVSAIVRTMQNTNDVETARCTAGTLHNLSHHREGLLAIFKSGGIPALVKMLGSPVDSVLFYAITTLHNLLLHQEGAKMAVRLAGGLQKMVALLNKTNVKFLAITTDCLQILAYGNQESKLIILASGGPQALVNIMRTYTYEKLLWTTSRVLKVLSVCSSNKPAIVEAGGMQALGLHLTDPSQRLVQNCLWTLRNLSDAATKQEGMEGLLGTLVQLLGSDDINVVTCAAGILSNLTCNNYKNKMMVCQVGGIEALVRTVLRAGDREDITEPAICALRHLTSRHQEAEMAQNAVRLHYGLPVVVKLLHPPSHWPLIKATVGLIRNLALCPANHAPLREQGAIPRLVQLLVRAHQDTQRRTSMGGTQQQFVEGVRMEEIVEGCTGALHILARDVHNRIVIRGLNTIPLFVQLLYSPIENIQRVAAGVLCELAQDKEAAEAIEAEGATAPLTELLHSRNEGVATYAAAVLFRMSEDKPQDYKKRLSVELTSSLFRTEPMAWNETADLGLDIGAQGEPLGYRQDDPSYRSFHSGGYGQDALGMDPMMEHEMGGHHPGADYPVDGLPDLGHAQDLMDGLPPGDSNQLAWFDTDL

T1: VE-cadherin (vascular endothelial cadherin) of human endothelial cells (human) (UniProt P33151)
T1 sequence (looked up): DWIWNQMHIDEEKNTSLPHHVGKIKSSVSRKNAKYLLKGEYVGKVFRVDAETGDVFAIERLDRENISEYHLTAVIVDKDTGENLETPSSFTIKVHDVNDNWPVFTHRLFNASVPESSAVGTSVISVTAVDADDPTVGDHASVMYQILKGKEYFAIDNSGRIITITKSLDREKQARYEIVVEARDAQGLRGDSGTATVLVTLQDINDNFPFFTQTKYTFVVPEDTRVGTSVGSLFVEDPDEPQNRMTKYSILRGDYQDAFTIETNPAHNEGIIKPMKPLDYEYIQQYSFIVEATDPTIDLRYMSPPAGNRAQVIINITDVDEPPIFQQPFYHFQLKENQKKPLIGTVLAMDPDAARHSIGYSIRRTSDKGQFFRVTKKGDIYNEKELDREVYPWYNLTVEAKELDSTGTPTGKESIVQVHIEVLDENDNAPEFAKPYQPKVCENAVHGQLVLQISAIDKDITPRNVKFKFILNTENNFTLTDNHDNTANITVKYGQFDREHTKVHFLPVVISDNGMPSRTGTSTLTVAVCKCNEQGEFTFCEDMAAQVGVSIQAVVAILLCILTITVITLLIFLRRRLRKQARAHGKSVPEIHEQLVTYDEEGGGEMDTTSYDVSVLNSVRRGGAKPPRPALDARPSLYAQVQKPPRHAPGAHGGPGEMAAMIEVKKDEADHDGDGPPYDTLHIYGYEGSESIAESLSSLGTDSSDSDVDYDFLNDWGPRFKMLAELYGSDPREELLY


Columns and labels:
[1] = target: T1, VE-cadherin (vascular endothelial cadherin) of human endothelial cells (human); assay: co-immunoprecipitation with anti VE-cadherin antibody, immunoblot for catenins
[2] = target: T1, VE-cadherin (vascular endothelial cadherin) of human endothelial cells (human); assay: co-immunoprecipitation with anti VE-cadherin antibody, immunoblot for catenins (FIG. 8)

Row | binding [1] | binding [2] | Molecule
1 | binds | – | β catenin (94 kD) of human endothelial cells (from UniProt P35222 2-781)
2 | binds | binds | γ catenin (85 kD) of human endothelial cells (protein, UniProt P14923 1-745, looked up) MEVMNLMEQPIKVTEWQQTYTYDSGIHSGANTCVPSVSSKGIMEEDEACGRQYTLKKTTTYTQGVPPSQGDLEYQMSTTARAKRVREAMCPGVSGEDSSLLLATQVEGQATNLQRLAEPSQLLKSAIVHLINYQDDAELATRALPELTKLLNDEDPVVVTKAAMIVNQLSKKEASRRALMGSPQLVAAVVRTMQNTSDLDTARCTTSILHNLSHHREGLLAIFKSGGIPALVRMLSSPVESVLFYAITTLHNLLLYQEGAKMAVRLADGLQKMVPLLNKNNPKFLAITTDCLQLLAYGNQESKLIILANGGPQALVQIMRNYSYEKLLWTTSRVLKVLSVCPSNKPAIVEAGGMQALGKHLTSNSPRLVQNCLWTLRNLSDVATKQEGLESVLKILVNQLSVDDVNVLTCATGTLSNLTCNNSKNKTLVTQNSGVEALIHAILRAGDKDDITEPAVCALRHLTSRHPEAEMAQNSVRLNYGIPAIVKLLNQPNQWPLVKATIGLIRNLALCPANHAPLQEAAVIPRLVQLLVKAHQDAQRHVAAGTQQPYTDGVRMEEIVEGCTGALHILARDPMNRMEIFRLNTIPLFVQLLYSSVENIQRVAAGVLCELAQDKEAADAIDAEGASAPLMELLHSRNEGTATYAAAVLFRISEDKNPDYRKRVSVELTNSLFKHDPAAWEAAQSMIPINEPYGDDMDATYRPMYSSDVPLDPLEMHMDMDGDYPIDTYSDGLRPPYPTADHMLA
